The subject of this assay is BDF1 mice, P388 leukemia ip, median survival T/C. The experiment in a line: NCI In Vivo Anticancer Drug Screen. Data for tumor model P388 Leukemia (intraperitoneal) in B6D2F1 (BDF1) mice. The following applies: T/C endpoint: median survival time, higher T/C = longer survival. In short, it runs like this:
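Compound-treated tumour-bearing mice were compared with vehicle-treated controls. Survival was recorded, and the value is the treated-group measurement divided by the control-group measurement (T/C).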

[1] abbreviates: dose: 100.0 mg/kg/injection, schedule: Q01DX009 (ip), vehicle: saline with Tween-80.
Setting [2] is: dose: 200.0 mg/kg/injection, schedule: Q01DX009 (ip), vehicle: saline with Tween-80.
Setting [3] is: dose: 200.0 mg/kg/injection, schedule: Q04DX003 (ip), vehicle: saline with Tween-80.
[4] abbreviates: dose: 400.0 mg/kg/injection, schedule: Q04DX003 (ip), vehicle: saline with Tween-80.
[5] abbreviates: dose: 100.0 mg/kg/injection, schedule: Q01DX009 (ip), vehicle: Klucel (hydroxypropylcellulose) (HPC).
The mark [6] stands for this setting: dose: 400.0 mg/kg/injection, schedule: Q01DX009 (ip), vehicle: Klucel (hydroxypropylcellulose) (HPC).
The mark [7] stands for this setting: dose: 400.0 mg/kg/injection, schedule: Q01DX009 (ip), vehicle: saline with Tween-80.
Setting [8] is: dose: 50.0 mg/kg/injection, schedule: Q01DX009 (ip), vehicle: saline with Tween-80.
The mark [9] stands for this setting: dose: 100.0 mg/kg/injection, schedule: Q04DX003 (ip), vehicle: Klucel (hydroxypropylcellulose) (HPC).
Where [10] appears, read: dose: 400.0 mg/kg/injection, schedule: Q04DX003 (ip), vehicle: Klucel (hydroxypropylcellulose) (HPC).
[11] abbreviates: dose: 12.5 mg/kg/injection, schedule: Q01DX009 (ip), vehicle: saline.

SMILES strings stand for the structures. The list shows only some results of the screen, not a fair sample: it is rich in T/C values a quarter to a half above the control, in often repeated tests (any T/C) and in doses without a T/C. Other doses and runs of a compound stand elsewhere. T/C: endpoint of the treated group in % of that of the vehicle group. Some doses have a count of surviving animals in place of a T/C: the source holds a T/C of zero for them, seemingly a mark for toxic or unscored doses. Some survivor counts are full or nearly so, which does not show that the dose was tolerated: the source hardly ever lists a survival T/C far under the control, and the zero likely stands for such cases as well. Survivors were counted at the toxicity check, usually on the fifth day, unless a day is given; later deaths do not show. Schedules are NCI's codes, taken here to give the interval after Q, in days (D) or hours (H), and the number of doses after X. Where survival is the endpoint, this PubChem deposit counts one and a half times the control or more as active, and values a quarter to a half above the control carry no call in these data; other NCI protocols may use other cut-offs. Some doses were run more than once; the values are given in rising order. Some T/C values are followed by the survivors on the day toxicity was checked, most often the fifth; without a count, all were alive then.

For `O/N=c1/ccn(O)c2ccccc12`, under “dose: 0.09 mg/kg/injection, schedule: Q01DX009 (ip), vehicle: saline”, the T/C was 131 % of control. The survivor count by setting is: (dose: 2.32 mg/kg/injection, schedule: Q04DX003 (ip), vehicle: saline) 6 of 6; (dose: 4.6 mg/kg/injection, schedule: Q01DX009 (ip), vehicle: saline) 6 of 6; (dose: 7.0 mg/kg/injection, schedule: Q01DX009 (ip), vehicle: saline) 3 of 6; (dose: 9.3 mg/kg/injection, schedule: Q04DX003 (ip), vehicle: saline) 6 of 6; (dose: 10.5 mg/kg/injection, schedule: Q01DX009 (ip), vehicle: saline) 3 of 6.

On to `CCOC(=O)c1cc2ccccc2n1-c1ccccc1`, for which the survivor count is 6 of 6 under setting [1] and 6 of 6 under setting [2].

In the case of `C=CC(c1ccccc1)C(O)(Cc1ccccc1)Cc1ccccc1` (centres undefined), the survivor count (dose: 25.0 mg/kg/injection, schedule: Q01DX009 (ip), vehicle: DMSO) is on record as 6 of 6.

Turning to `CCCCOC(=O)c1ccc(NC(=O)Nc2ccccc2OC)cc1`, the survivor count reads like this: under setting [3], 6 of 6; under setting [4], 6 of 6.

On to `CN(C)c1ccc(C2NC(=S)NC3=C2CCCC3)cc1` (centres undefined), for which the survivor count is, setting by setting: under setting [1], 6 of 6; under setting [2], 6 of 6.

Turning to `CS(=O)(=O)OCCC#N`, the survivor count is 6 of 6 (dose: 25.0 mg/kg/injection, schedule: Q01DX009 (ip), vehicle: saline); 6 of 6 (dose: 100.0 mg/kg/injection, schedule: Q01DX009 (ip), vehicle: saline); 5 of 6 (dose: 200.0 mg/kg/injection, schedule: Q04DX003 (ip), vehicle: alcohol); 0 of 6 (dose: 225.0 mg/kg/injection, schedule: Q01DX009 (ip), vehicle: saline); 0 of 6 (dose: 335.0 mg/kg/injection, schedule: Q01DX009 (ip), vehicle: saline); 0 of 6 (dose: 400.0 mg/kg/injection, schedule: Q04DX003 (ip), vehicle: alcohol).

Consider `CC(=O)C(=O)NC1/C=C(C)\C=C/C(O)C/C=C(C)\C=C/C(O)CC2OC(=O)C1(C)C(=O)C2C` (centres undefined), for which the T/C (dose: 75.0 mg/kg/injection, schedule: Q01DX009 (ip), vehicle: Klucel (hydroxypropylcellulose) (HPC)) is 125 % of control; the T/C under setting [5] was 129 and 146 % of control; the T/C (dose: 125.0 mg/kg/injection, schedule: Q01DX009 (ip), vehicle: Klucel (hydroxypropylcellulose) (HPC)) is 129 % of control; the T/C (dose: 150.0 mg/kg/injection, schedule: Q01DX009 (ip), vehicle: Klucel (hydroxypropylcellulose) (HPC)) was 135 % of control. Further, the survivor count is recorded as 3 of 3 under setting [5] and 3 of 3 under setting [6].

As to `COc1ccc(Nc2c3ccccc3nc3ccccc23)cc1`, the survivor count by setting is: under setting [1], 5 of 6; under setting [2], 4 of 6; under setting [7], 0 of 6.

Turning to `COc1ccc(C(O)(CS(C)=O)c2cccs2)cc1` (centres undefined), the T/C under setting [8] is 146 % of control.

Turning to `O=C1SCCC1CO` (centres undefined), the survivor count is on record as 6 of 6 under setting [3] and 0 of 6 under setting [4].

`CCNC(C)(C)C(Cl)c1ccc(Cl)s1` (centres undefined): the survivor count is, setting by setting: under setting [5], 4 of 6; under setting [3], 4 of 6.

Turning to `Cc1cc(O)c2c(c1)C(=O)C=CC2=O`, the T/C runs as follows: (dose: 0.36 mg/kg/injection, schedule: Q01DX009 (ip), vehicle: alcohol) 135 % of control; (dose: 0.82 mg/kg/injection, schedule: Q01DX009 (ip), vehicle: alcohol) 140 % of control; (dose: 1.25 mg/kg/injection, schedule: Q01DX009 (ip), vehicle: alcohol) 125 % of control. Besides, the survivor count is, setting by setting: (dose: 5.0 mg/kg/injection, schedule: Q01DX009 (ip), vehicle: alcohol) 3 of 6; (dose: 10.0 mg/kg/injection, schedule: Q01DX009 (ip), vehicle: alcohol) 0 of 6.

On to `CN=C(C)c1ccc(N(C)C)cc1`, for which the T/C runs as follows: (dose: 50.0 mg/kg/injection, schedule: Q04DX003 (ip), vehicle: Klucel (hydroxypropylcellulose) (HPC)) 129 % of control; under setting [9], 145 % of control; (dose: 200.0 mg/kg/injection, schedule: Q04DX003 (ip), vehicle: Klucel (hydroxypropylcellulose) (HPC)) 142 % of control [4 of 6 alive]. Besides, under setting [10], the survivor count is reported as 0 of 6.

As for `Nc1cc(C(=O)Nc2ccc(CCNC3=NCCN3)cc2)ccc1C(=O)Nc1ccc(CCNC2=NCCN2)cc1`, the T/C is 130 % of control (dose: 4.0 mg/kg/injection, schedule: Q01DX009 (ip), vehicle: saline with Tween-80) and 145 % of control (dose: 18.0 mg/kg/injection, schedule: Q04DX003 (ip), vehicle: saline with Tween-80). Also, the survivor count (dose: 40.0 mg/kg/injection, schedule: Q01DX009 (ip), vehicle: saline with Tween-80) was 6 of 6 and the survivor count (dose: 60.0 mg/kg/injection, schedule: Q04DX003 (ip), vehicle: saline with Tween-80) is 2 of 6.

On to `O=[N+]([O-])c1ccc2nccc(Cl)c2c1`, for which the survivor count under setting [9] was 2 of 6.

In the case of `C[C@@H]1C[C@H]2C(=CC1=O)CC[C@@H]1[C@@H]2CC[C@@]2(C)[C@H]1CC[C@]2(C)O`, under setting [10], the survivor count is 1 of 6.

As for `C[N+](C)(C)CCC[n+]1ccc(CCn2ccc3ccccc32)cc1`, the survivor count (dose: 200.0 mg/kg/injection, schedule: Q01DX001 (ip), vehicle: saline) is reported as 0 of 6.

For `Cc1ncc([N+](=O)[O-])n1CCn1nnc2c1CCCC2`, the T/C (dose: 100.0 mg/kg/injection, schedule: Q04DX003 (ip), vehicle: saline with Tween-80) was 129 % of control.

In the case of `Cc1ccc(C(=O)NCCCOc2ccc(N)cc2Cl)cc1S(=O)(=O)F`, the survivor count under setting [7] is given as 2 of 6.

As for `O=[N+]([O-])c1ccc(Cl)nc1`, the T/C was 136 % of control under setting [8] and 136 % of control under setting [1].

On to `CN(C)c1ccc(/C=C\c2ccnc3ccccc23)cc1Br`, for which the survivor count under setting [8] is listed as 5 of 6 and the survivor count under setting [2] is listed as 5 of 6.

On to `CN(C)Nc1ncnc2nc[nH]c12`, for which the survivor count reads like this: (dose: 200.0 mg/kg/injection, schedule: Q01DX009 (ip), vehicle: saline) 0 of 6; under setting [4], 3 of 6.

Turning to `O=C1NC(c2ccccc2)C(=O)N1CCN(CCCl)CCCl` (centres undefined), the T/C runs as follows: (dose: 6.25 mg/kg/injection, schedule: Q01DX009 (ip), vehicle: saline) 129 % of control; under setting [11], 134 % of control. Moreover, the survivor count (dose: 50.0 mg/kg/injection, schedule: Q01DX009 (ip), vehicle: saline) was 3 of 6.

Consider `COc1ccc(/C=C/C(=O)c2ccc3c(c2)OCO3)cc1O`, for which the T/C under setting [11] was 136 % of control.

For the compound `O=c1cc(N=Nc2ccc(O)cc2)[nH]c(=O)[nH]1`, for the setting “dose: 100.0 mg/kg/injection, schedule: Q04DX003 (ip), vehicle: water”, the T/C is 127 % of control [5 of 6 alive].

With `COC(=O)/C(C#N)=C\c1ccccc1`, the survivor count under setting [3] is listed as 5 of 6.

As to `O=c1cc(CO)[nH]cc1O`, the T/C was 139 % of control (dose: 266.0 mg/kg/injection, schedule: Q01DX009 (ip), vehicle: Klucel (hydroxypropylcellulose) (HPC)) and 141 % of control under setting [6]. For the same compound, the survivor count (dose: 600.0 mg/kg/injection, schedule: Q01DX009 (ip), vehicle: Klucel (hydroxypropylcellulose) (HPC)) is 5 of 5.

On to `Nc1ncnc2c1c(C(=O)O)cn2C1OC(CO)C(O)C1O` (centres undefined), for which, under “dose: 66.0 mg/kg/injection, schedule: Q04DX003 (ip), vehicle: saline with Tween-80”, the T/C was 145 % of control.

As to `COc1cccc2c1C(=O)c1c(O)c3c(c(O)c1C2=O)C[C@@](O)(/C(C)=N/NC(=O)c1cccc([N+](=O)[O-])c1)C[C@@H]3OC1CC(N)C(O)C(C)O1` (some centres undefined), the T/C (dose: 0.25 mg/kg/injection, schedule: Q01DX009 (ip), vehicle: water) is 135 % of control and the T/C (dose: 0.5 mg/kg/injection, schedule: Q01DX009 (ip), vehicle: water) was 137 % of control.
